In patent publication US6417164B1, “Treatment of type II diabetes mellitus with amylin agonists” (Amylin Pharmaceuticals, Inc., priority 1995, dated 2002):
Not every detail of the peptide structures is certain; ends, links or a residue may be inferred.

Tests used:
[1] = system: treated test animals; experiment: Amylin activity in vivo in treated test animals
Excerpt: These preferred compounds include ^25Pro^26Val^28,29Pro-h-amylin, ^25,28,29Pro-h-amylin (also referred to herein as “AC-0137”), and ^18Arg^25,28Pro-h-amylin.

[2] = system: patients with Type II diabetes mellitus; experiment: Single-blind, placebo-controlled, two-period crossover clinical trial of AC137 microinfusion with standardized Sustacal test meal; type: in vivo, human; conditions: for AUC(1-5) plasma glucose (Mean ± SEM) / Cmax plasma glucose (Mean ± SEM) / Zero-Hour AUC(1-5) plasma glucose (Mean ± SEM) / Zero-Hour Cmax plasma glucose (Mean ± SEM): 100 μg/h AC137 infusion; for Mean Plasma Glucose Levels From Hours 1 Through 5 Following a Sustacal Test Meal, Mean ± SEM: 5-hour infusion of 100 μg/h AC137
[3] = system: subjects with Type I diabetes; conditions: cited from earlier work
[4] = HbA1c Levels < 8%, Insulin-Treated Patients (N = 3)
[5] = HbA1c Levels < 8%, Non-Insulin-Treated Patients (N = 7)
[6] = HbA1c Levels ≧ 8%, Insulin-Treated Patients (N = 9)
[7] = HbA1c Levels ≧ 8%, Non-Insulin-Treated Patients (N = 5)
[8] = Insulin-Treated Patients (N = 12), Sustacal test meal
[9] = Non-Insulin-Treated Patients (N = 12), Sustacal test meal
[10] = insulin-treated patients receiving AC137 versus placebo
[11] = 9 subjects with Type I diabetes, infusion 50 μg/hr for 5 hours

CC[C@H](C)[C@H](NC(=O)[C@@H]1CCCN1C(=O)CNC(=O)[C@H](Cc1ccccc1)NC(=O)[C@H](CC(N)=O)NC(=O)[C@H](CC(N)=O)NC(=O)[C@H](CO)NC(=O)[C@H](CO)NC(=O)[C@H](Cc1c[nH]cn1)NC(=O)[C@@H](NC(=O)[C@H](CC(C)C)NC(=O)[C@H](Cc1ccccc1)NC(=O)[C@H](CC(N)=O)NC(=O)[C@H](C)NC(=O)[C@H](CC(C)C)NC(=O)[C@H](CCCNC(=N)N)NC(=O)[C@H](CCC(N)=O)NC(=O)[C@@H](NC(=O)[C@H](C)NC(=O)[C@@H]1CSSC[C@H](NC(=O)[C@@H](N)CCCCN)C(=O)N[C@@H](CC(N)=O)C(=O)N[C@@H]([C@@H](C)O)C(=O)N[C@@H](C)C(=O)N[C@@H]([C@@H](C)O)C(=O)N1)[C@@H](C)O)C(C)C)C(=O)N[C@@H](CC(C)C)C(=O)N1CCC[C@H]1C(=O)N1CCC[C@H]1C(=O)N[C@H](C(=O)N[C@@H](CC(N)=O)C(=O)N[C@H](C(=O)NCC(=O)N[C@@H](CO)C(=O)N[C@@H](CC(N)=O)C(=O)N[C@H](C(=O)N[C@@H](Cc1ccc(O)cc1)C(N)=O)[C@@H](C)O)C(C)C)[C@@H](C)O [AC137, ^25,28,29Pro-h-amylin]
amylin activity in vivo [1]: marked hyperlactemia followed by hyperglycemia | mean reduction in glucose levels (Hours 1 through 5) ([2]; AC137-infused insulin-treated patients versus placebo): 23% | AUC(1-5) plasma glucose (Mean ± SEM) [2, 4]: 700.8 ± 84.2 mg·h/dL | Cmax plasma glucose (Mean ± SEM) [2, 4]: 193.0 ± 22.1 mg/dL | Zero-Hour AUC(1-5) plasma glucose (Mean ± SEM) [2, 4]: 15.5 ± 30.4 mg·h/dL | Zero-Hour Cmax plasma glucose (Mean ± SEM) [2, 4]: 21.7 ± 10.8 mg/dL | AUC(1-5) plasma glucose (Mean ± SEM) [2, 5]: 545.5 ± 61.9 mg·h/dL | Cmax plasma glucose (Mean ± SEM) [2, 5]: 166.1 ± 20.3 mg/dL | Zero-Hour AUC(1-5) plasma glucose (Mean ± SEM) [2, 5]: 96.9 ± 32.8 mg·h/dL | Zero-Hour Cmax plasma glucose (Mean ± SEM) [2, 5]: 54.0 ± 13.4 mg/dL | AUC(1-5) plasma glucose (Mean ± SEM) [2, 6]: 747.9 ± 68.6 mg·h/dL | Cmax plasma glucose (Mean ± SEM) [2, 6]: 220.0 ± 18.6 mg/dL | Zero-Hour AUC(1-5) plasma glucose (Mean ± SEM) [2, 6]: 63.1 ± 69.4 mg·h/dL | Zero-Hour Cmax plasma glucose (Mean ± SEM) [2, 6]: 48.8 ± 19.4 mg/dL | AUC(1-5) plasma glucose (Mean ± SEM) [2, 7]: 871.4 ± 49.8 mg·h/dL | Cmax plasma glucose (Mean ± SEM) [2, 7]: 240.4 ± 16.4 mg/dL | Zero-Hour AUC(1-5) plasma glucose (Mean ± SEM) [2, 7]: -7.9 ± 32.8 mg·h/dL | Zero-Hour Cmax plasma glucose (Mean ± SEM) [2, 7]: 20.6 ± 12.0 mg/dL | AUC(1-5) plasma glucose (Mean ± SEM) [2, 8]: 736.2 ± 54.1 mg·h/dL | Cmax plasma glucose (Mean ± SEM) [2, 8]: 213.3 ± 14.9 mg/dL | Zero-Hour AUC(1-5) plasma glucose (Mean ± SEM) [2, 8]: 51.2 ± 52.0 mg·h/dL | Zero-Hour Cmax plasma glucose (Mean ± SEM) [2, 8]: 42.0 ± 15.0 mg/dL | Mean Plasma Glucose Levels From Hours 1 Through 5 Following a Sustacal Test Meal, Mean ± SEM ([2]; Insulin-Treated Patients (N = 12)): 183.1 ± 13.4 mg/dL | AUC(1-5) plasma glucose (Mean ± SEM) [2, 9]: 681.3 ± 62.8 mg·h/dL | Cmax plasma glucose (Mean ± SEM) [2, 9]: 197.1 ± 17.1 mg/dL | Zero-Hour AUC(1-5) plasma glucose (Mean ± SEM) [2, 9]: 53.3 ± 27.4 mg·h/dL | Zero-Hour Cmax plasma glucose (Mean ± SEM) [2, 9]: 40.1 ± 10.2 mg/dL | Mean Plasma Glucose Levels From Hours 1 Through 5 Following a Sustacal Test Meal, Mean ± SEM ([2]; Non-Insulin-Treated Patients (N = 12)): 169.8 ± 15.7 mg/dL | mean reduction in glucose zero-hour AUC(1-5) [2, 10]: 93% | mean reduction in glucose zero-hour Cmax [2, 10]: 66% | post-prandial hyperglycemia following ingestion of a mixed meal ([3]; 6 male subjects with Type I diabetes, 2-hour infusion at 150 μg/hr): significantly decrease post-prandial hyperglycemia | post-prandial glucose excursion after intravenous glucose load of 300 mg/kg [3, 11]: not after the intravenous administration of glucose | post-prandial glucose excursion after oral SUSTACAL meal [3, 11]: significant decrease in post-prandial glucose excursion | glucose excursion after a test meal ([3]; double-blind, placebo-controlled study, self-injected before meals thrice daily, usual insulin regime continued): reduced glucose excursion after a test meal | effect on glucose excursion after a test meal ([3]; third study, dose of 30 μg): statistically significant effect
